Results on two substances are retold here after paper PMC6155126.

Sequences of proteins named here, by UniProt entry; tags and fusion partners are left off.
UniProt Q9BUH6: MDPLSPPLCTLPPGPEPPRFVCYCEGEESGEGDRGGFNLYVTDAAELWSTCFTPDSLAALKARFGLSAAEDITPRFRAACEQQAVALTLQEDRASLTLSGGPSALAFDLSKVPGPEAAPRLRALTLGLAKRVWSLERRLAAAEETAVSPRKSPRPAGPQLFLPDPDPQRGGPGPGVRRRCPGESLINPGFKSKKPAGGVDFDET

The target in one experiment is FLAG-PAXX (human) (UniProt Q9BUH6). In words: affinity purification with mass spectrometry; anti-FLAG IP of FLAG-PAXX, -XLF, -XRCC4, -DNA-PKcs (stable) or FLAG-Pol λ (transient) from nucleoplasmic and benzonase-treated soluble chromatin fractions of HEK293F cells; FLAG peptide elution; LC-MS/MS.
The target in a further experiment is FLAG-Pol λ-WT (human) (UniProt Q9UGP5). Described as above.

No constants are given. Whether binding was seen depends on the method and setting. In cells and extracts the contact can be indirect. Here binding means that the protein was enriched with, or labelled near, the bait; the list need not be complete. For some assays here: Tags and fused reporters may be left off the sequences shown.

“DNA polymerase λ (endogenous) (from UniProt Q9UGP5 1-575) (enzyme)”: the binding result with FLAG-PAXX (human) is listed as “binds”.

As to “PAXX (endogenous) (from UniProt Q9BUH6 1-204)”, the binding entry with FLAG-Pol λ-WT (human) was “binds”.
